Patent publication US20150216933A1, “HEMATOPOIETIC STEM CELL GROWTH FACTOR” (DUKE UNIVERSITY, priority 2008, published 2015)
At least one structure is not confirmed: it was looked up by name or label, or the drawing left a doubt.

System: Akt phosphorylated at S473
Test: Phosphorylated Akt in cultured BM HSCs
Type: cell-based, mouse
Settings: addition of wortmannin to TSF+PTN

For `COC[C@H]1OC(=O)c2coc3c2[C@@]1(C)C1=C(C3=O)[C@@H]2CCC(=O)[C@@]2(C)C[C@H]1OC(C)=O` [wortmannin], the “effect of PTN treatment on phosphorylated Akt levels in HSCs” value was “abolished”.
